{
  "source": "patent US20010036941A1",
  "about": "“Use of 7-(1-aminomethyl-2-oxa-7-aza-bicyclo[3.3.0]oct-7-yl)-quinolonecarboxylic acid and -naphthyridonecarboxylic acid derivatives for the therapy of Helicobacter pylori infections and associated gastroduodenal disorders” (priority 1996, published 2001)",
  "tested_on": "H. felis strain (ATCC 49179)",
  "assay": "H. felis mouse model (clearance / eradication, urease test)",
  "format": "in vivo, mice",
  "settings": "animal model (H. felis, mouse), monotherapeutic treatment",
  "procedure": "The bacteria were administered as a suspension (0.1 ml with 10^8-10^9 bacteria) 4 times within 7 days using a pharyngeal tube. Alternatively, stomach homogenates of mice which had been infected earlier were also used for infection.\nIn some cases, pathogen eradication 24 weeks after the end of the treatment was also determined. In accordance with the “CLO” test used in clinical diagnostics, a microtitre-based urease test was used. Defined stomach biopsy specimens were tested for change of colour within a period of 24 hours.",
  "note": "At least one compound was matched to its structure with a doubt left.",
  "data": [
    {"molecule": "CC1COc2c(N3CCN(C)CC3)c(F)cc3c(=O)c(C(=O)O)cn1c23", "note": "(stereo not shown) [ofloxacin, reference compound]", "values": [
      {"measurement": "Eradication of H. felis in the mouse model", "value": "not capable of eradicating the germ"}
    ]}
  ]
}
